Data as given in the supplement of paper PMC8975748.
Structures can show the parent of a compound that is named as a salt. ± gives the standard deviation of the averaged measurements. The list shows a part of the results. Values are raw readings; no control value is given beside them.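 One yeast strain harboring four plasmids, each bearing a fluorescent protein plus an amino-acid or uracil synthesis gene, founds the community. Random loss of plasmids produces mixed prototroph and auxotroph subpopulations. Cells were fixed, then counted with automated confocal fluorescence imaging, with DMSO-treated wells as vehicle reference.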

test system: Saccharomyces cerevisiae BY4741 SeMeCo community; assay: imaged cell count per well (cells); higher = more cells; conditions: 10 µM; 24 h; SM minimal medium
Method: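 Same SeMeCo high-content imaging drug screen: Selleck FDA-approved drugs at 10 µM, 24 h in SM medium, 384-well plates, 3 replicates.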

SMILES	imaged cell count per well
C=C1c2cccc(O)c2C(=O)C2=C(O)[C@]3(O)C(=O)C(C(N)=O)=C(O)[C@@H](N(C)C)[C@@H]3[C@@H](O)[C@H]12 [Methacycline HCl]	22300 ± 6300
CCOc1cc(NC(C)=O)ccc1C(=O)OC [Ethopabate]	17100 ± 12000
C[C@H](Nc1ncnc2nc[nH]c12)c1cc2cccc(Cl)c2c(=O)n1-c1ccccc1 [Duvelisib (IPI-145, INK1197)]	21300 ± 4600
CCN(CC)CCOC(=O)c1ccc(N)cc1 [Procaine HCl]	22400 ± 6700
N#Cc1ccc(Oc2ccc3c(c2)COB3O)cc1 [Crisaborole (AN2728)]	17200 ± 3500
COCCCN1CCC(NC(=O)c2cc(Cl)c(N)c3c2OCC3)CC1 [Prucalopride Succinate]	17600 ± 13000
COc1cc(/C=C/C(=O)N2CCN(CC(=O)N3CCCC3)CC2)cc(OC)c1OC [Cinepazide maleate]	18600 ± 2100
CO[C@H]1/C=C/O[C@@]2(C)Oc3c(C)c(O)c4c(c3C2=O)C2=NC3(CCN(CC(C)C)CC3)NC2=C(NC(=O)/C(C)=C\C=C\[C@H](C)[C@H](O)[C@@H](C)[C@@H](O)[C@@H](C)[C@H](OC(C)=O)[C@@H]1C)C4=O [Rifabutin]	18200 ± 5300
CN1C2CCCC1CC(NC(=O)c1nn(C)c3ccccc13)C2 (stereo not drawn) [Granisetron HCl]	31200 ± 3000
CN(C)CCc1c[nH]c2ccc(C[C@H]3COC(=O)N3)cc12 [Zolmitriptan]	22600 ± 980
O=C(O)CCNC(=O)c1ccccc1 [Betamipron]	20500 ± 8300
COc1cc(NC(C)CCCN)c2ncccc2c1 (stereo not drawn) [Primaquine Diphosphate]	22200 ± 10000
CNC1CCCN(c2c(F)cc3c(=O)c(C(=O)O)cn(C4CC4)c3c2OC)C1 (stereo not drawn) [Balofloxacin]	25200 ± 7200
NC(=NCCCCCCN=C(N)N=C(N)Nc1ccc(Cl)cc1)N=C(N)Nc1ccc(Cl)cc1 [Chlorhexidine?2HCl]	32000 ± 2400
CC#C[C@]1(O)CC[C@H]2[C@@H]3CCC4=CC(=O)CCC4=C3[C@@H](c3ccc(N(C)C)cc3)C[C@@]21C [Mifepristone]	29500 ± 6000
N=C(N)NC(=O)c1nc(Cl)c(N)nc1N [Amiloride HCl]	17400 ± 8200
CC(=O)O[C@H]1C[C@@]2(C)[C@@H](C[C@@H](O)[C@H]3[C@@]4(C)CC[C@@H](O)[C@@H](C)[C@@H]4CC[C@@]32C)/C1=C(\CCC=C(C)C)C(=O)O [Fusidine]	25100 ± 2200
CC[C@H]1OC(=O)[C@H](C)[C@@H](O[C@H]2C[C@@](C)(OC)[C@@H](O)[C@H](C)O2)[C@H](C)[C@@H](O[C@@H]2O[C@H](C)C[C@H](N(C)C)[C@H]2O)[C@](C)(O)C[C@@H](C)/C(=N\OCOCCOC)[C@H](C)[C@@H](O)[C@]1(C)O [Roxithromycin]	25300 ± 4600
Cc1cccc(N(C)C(=S)Oc2ccc3ccccc3c2)c1 [Tolnaftate]	26700 ± 2000

2 of the compounds above, in markdown:

| SMILES | imaged cell count per well |
| --- | --- |
| NC(=NCCCCCCN=C(N)N=C(N)Nc1ccc(Cl)cc1)N=C(N)Nc1ccc(Cl)cc1 [Chlorhexidine?2HCl] | 32000 ± 2400 |
| CC#C[C@]1(O)CC[C@H]2[C@@H]3CCC4=CC(=O)CCC4=C3[C@@H](c3ccc(N(C)C)cc3)C[C@@]21C [Mifepristone] | 29500 ± 6000 |

(further entries)

SMILES	imaged cell count per well
CCOc1cc(N)c([N+](=O)[O-])cc1C(=O)NC1CCN(CC2CC=CCC2)CC1 (stereo not drawn) [Cinitapride Hydrogen Tartrate]	23500 ± 5400
COc1ccc2[nH]c([S@@+]([O-])Cc3ncc(C)c(OC)c3C)nc2c1 [NEXIUM (esomeprazole magnesium)]	20900 ± 2900
O=c1[nH]c(=O)n([C@H]2C[C@H](O)[C@@H](CO)O2)cc1/C=C/Br [Brivudine]	28000 ± 4500
CCNC(=O)[C@@H]1CCCN1C(=O)[C@H](CCCNC(=N)N)NC(=O)[C@H](CC(C)C)NC(=O)[C@@H](CC(C)C)NC(=O)[C@H](Cc1ccc(O)cc1)NC(=O)[C@H](CO)NC(=O)[C@H](Cc1c[nH]c2ccccc12)NC(=O)[C@H](Cc1c[nH]cn1)NC(=O)[C@@H]1CCC(=O)N1 [Leuprolide Acetate]	22700 ± 7000
CC1(C)S[C@@H]2[C@H](NC(=O)[C@H](N)c3ccccc3)C(=O)N2[C@H]1C(=O)OCOC(=O)[C@@H]1N2C(=O)C[C@H]2S(=O)(=O)C1(C)C [Sultamicillin]	23500 ± 3400
CC[C@@H]([C@H](C)O)n1ncn(-c2ccc(N3CCN(c4ccc(OC[C@@H]5CO[C@@](Cn6cncn6)(c6ccc(F)cc6F)C5)cc4)CC3)cc2)c1=O [Posaconazole]	5800 ± 1500
CO[C@@H]1[C@@H](O[C@@H]2O[C@H](C)[C@@H](O[C@H]3C[C@@](C)(O)[C@@H](OC(=O)CC(C)C)[C@H](C)O3)[C@H](N(C)C)[C@H]2O)[C@@H](CC=O)C[C@@H](C)[C@@H](O)/C=C/C=C/C[C@@H](C)OC(=O)C[C@H]1O [Kitasamycin]	24500 ± 2500
CCOc1ccc(NC(C)=O)cc1 [Phenacetin]	18200 ± 1700
COc1ccc(CCN(C)CCCC(C#N)(c2ccc(OC)c(OC)c2)C(C)C)cc1OC (stereo not drawn) [Verapamil HCl]	21300 ± 4100
CN(C)C(=O)COC(=O)Cc1ccc(OC(=O)c2ccc(NC(=N)N)cc2)cc1 [Camostat Mesilate]	23000 ± 1200
C=C[C@]1(C)C[C@@H](OC(=O)CSC(C)(C)CNC(=O)[C@H](N)C(C)C)[C@]2(C)[C@H](C)CC[C@]3(CCC(=O)[C@H]32)[C@@H](C)[C@@H]1O [Valnemulin HCl]	25700 ± 5700
O=C(O[C@@H]1C[C@@H]2C[C@H]3C[C@H](C1)N2CC3=O)c1c[nH]c2ccccc12 [Dolasetron Mesylate]	29800 ± 4600
Nc1ccc(S(=O)(=O)Nc2ncccn2)cc1 [Sodium sulfadiazine]	24800 ± 3000
CN1CC2c3ccccc3Oc3ccc(Cl)cc3C2C1 (stereo not drawn) [Asenapine maleate]	23900 ± 4000
CCCCCCCCCCCC(=O)O [Lauric Acid]	28000 ± 5100
N#Cc1ccc2[nH]cc(CCCCN3CCN(c4ccc5oc(C(N)=O)cc5c4)CC3)c2c1 [Vilazodone HCl]	24900 ± 3900
Cc1ccc(Sc2ccccc2N2CCNCC2)c(C)c1 [Vortioxetine]	26000 ± 5100
Fc1ccc([C@@H]2CCNC[C@H]2COc2ccc3c(c2)OCO3)cc1 [Paroxetine mesylate]	24600 ± 4800
CC(=O)Oc1ccc(C(=C2CCCCC2)c2ccc(OC(C)=O)cc2)cc1 [Cyclofenil]	20600 ± 5700
